According to paper PMC11163727:
No constants are given. Whether binding was seen depends on the method and setting. In cells and extracts the contact can be indirect. Some entries that bind do so weakly or less than the wild type.

The chains behind the UniProt entries cited, without tags or fusion partners. Residues count along the entry.
UniProt Q15022: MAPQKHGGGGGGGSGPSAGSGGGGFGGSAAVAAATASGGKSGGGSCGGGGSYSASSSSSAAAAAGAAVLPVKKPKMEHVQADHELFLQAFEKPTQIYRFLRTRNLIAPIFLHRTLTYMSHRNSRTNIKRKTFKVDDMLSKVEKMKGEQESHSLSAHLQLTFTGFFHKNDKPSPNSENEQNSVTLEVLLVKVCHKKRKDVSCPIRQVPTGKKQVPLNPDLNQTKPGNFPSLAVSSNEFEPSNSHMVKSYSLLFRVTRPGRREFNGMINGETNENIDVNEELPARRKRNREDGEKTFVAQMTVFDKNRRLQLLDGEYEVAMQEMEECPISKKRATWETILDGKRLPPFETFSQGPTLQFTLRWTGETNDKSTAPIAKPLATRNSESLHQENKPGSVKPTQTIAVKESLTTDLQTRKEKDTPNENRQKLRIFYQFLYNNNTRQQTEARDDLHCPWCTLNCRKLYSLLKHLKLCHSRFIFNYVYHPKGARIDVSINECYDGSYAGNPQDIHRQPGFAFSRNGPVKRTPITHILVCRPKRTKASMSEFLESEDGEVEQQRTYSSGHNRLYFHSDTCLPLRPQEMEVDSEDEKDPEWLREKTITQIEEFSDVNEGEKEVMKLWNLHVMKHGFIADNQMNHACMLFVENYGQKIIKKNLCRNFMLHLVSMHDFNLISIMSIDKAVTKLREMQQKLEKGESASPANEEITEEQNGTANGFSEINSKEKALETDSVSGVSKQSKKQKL
UniProt Q15910: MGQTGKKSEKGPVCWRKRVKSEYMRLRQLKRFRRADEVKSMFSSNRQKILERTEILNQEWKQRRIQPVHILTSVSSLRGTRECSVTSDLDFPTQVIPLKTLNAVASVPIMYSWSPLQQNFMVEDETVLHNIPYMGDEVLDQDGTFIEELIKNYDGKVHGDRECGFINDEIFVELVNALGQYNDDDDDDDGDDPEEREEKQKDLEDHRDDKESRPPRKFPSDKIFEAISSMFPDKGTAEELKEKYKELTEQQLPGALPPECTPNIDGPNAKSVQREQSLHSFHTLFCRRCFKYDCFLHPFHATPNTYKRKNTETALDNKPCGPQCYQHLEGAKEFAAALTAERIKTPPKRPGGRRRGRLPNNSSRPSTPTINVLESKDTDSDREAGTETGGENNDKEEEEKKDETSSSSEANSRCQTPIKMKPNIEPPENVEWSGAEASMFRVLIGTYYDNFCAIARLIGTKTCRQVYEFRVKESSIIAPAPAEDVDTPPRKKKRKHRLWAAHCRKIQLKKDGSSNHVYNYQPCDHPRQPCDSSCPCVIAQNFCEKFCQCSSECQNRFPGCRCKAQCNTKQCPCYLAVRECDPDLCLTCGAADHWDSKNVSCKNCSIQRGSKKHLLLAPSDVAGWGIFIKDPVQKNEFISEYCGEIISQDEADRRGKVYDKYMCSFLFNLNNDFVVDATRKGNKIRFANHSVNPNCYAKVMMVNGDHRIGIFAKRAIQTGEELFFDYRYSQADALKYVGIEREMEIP
UniProt P08174, residues 35-353: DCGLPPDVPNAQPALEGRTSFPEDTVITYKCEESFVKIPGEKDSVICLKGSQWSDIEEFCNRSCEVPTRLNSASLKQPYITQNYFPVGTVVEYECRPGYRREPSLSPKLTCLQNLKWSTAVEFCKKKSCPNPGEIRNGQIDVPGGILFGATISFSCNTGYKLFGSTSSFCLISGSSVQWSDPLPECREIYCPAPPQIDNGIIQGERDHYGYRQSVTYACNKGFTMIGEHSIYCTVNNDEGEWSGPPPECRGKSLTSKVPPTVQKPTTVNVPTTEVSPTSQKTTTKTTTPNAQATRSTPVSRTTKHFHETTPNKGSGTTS

Tests used:
[1] = molecular target: T1, Zinc finger MYND domain-containing protein 8 (ZMYND8) (human (endogenous in CP70)) (UniProt Q9ULU4); assay: co-IP; CP70 cells transduced with empty vector or CD55, lysed in IP lysis buffer; IP with 3 ug CD55 or ZMYND8 antibody overnight at 4 C, magnetic A/G beads, immunoblot
T1 sequence: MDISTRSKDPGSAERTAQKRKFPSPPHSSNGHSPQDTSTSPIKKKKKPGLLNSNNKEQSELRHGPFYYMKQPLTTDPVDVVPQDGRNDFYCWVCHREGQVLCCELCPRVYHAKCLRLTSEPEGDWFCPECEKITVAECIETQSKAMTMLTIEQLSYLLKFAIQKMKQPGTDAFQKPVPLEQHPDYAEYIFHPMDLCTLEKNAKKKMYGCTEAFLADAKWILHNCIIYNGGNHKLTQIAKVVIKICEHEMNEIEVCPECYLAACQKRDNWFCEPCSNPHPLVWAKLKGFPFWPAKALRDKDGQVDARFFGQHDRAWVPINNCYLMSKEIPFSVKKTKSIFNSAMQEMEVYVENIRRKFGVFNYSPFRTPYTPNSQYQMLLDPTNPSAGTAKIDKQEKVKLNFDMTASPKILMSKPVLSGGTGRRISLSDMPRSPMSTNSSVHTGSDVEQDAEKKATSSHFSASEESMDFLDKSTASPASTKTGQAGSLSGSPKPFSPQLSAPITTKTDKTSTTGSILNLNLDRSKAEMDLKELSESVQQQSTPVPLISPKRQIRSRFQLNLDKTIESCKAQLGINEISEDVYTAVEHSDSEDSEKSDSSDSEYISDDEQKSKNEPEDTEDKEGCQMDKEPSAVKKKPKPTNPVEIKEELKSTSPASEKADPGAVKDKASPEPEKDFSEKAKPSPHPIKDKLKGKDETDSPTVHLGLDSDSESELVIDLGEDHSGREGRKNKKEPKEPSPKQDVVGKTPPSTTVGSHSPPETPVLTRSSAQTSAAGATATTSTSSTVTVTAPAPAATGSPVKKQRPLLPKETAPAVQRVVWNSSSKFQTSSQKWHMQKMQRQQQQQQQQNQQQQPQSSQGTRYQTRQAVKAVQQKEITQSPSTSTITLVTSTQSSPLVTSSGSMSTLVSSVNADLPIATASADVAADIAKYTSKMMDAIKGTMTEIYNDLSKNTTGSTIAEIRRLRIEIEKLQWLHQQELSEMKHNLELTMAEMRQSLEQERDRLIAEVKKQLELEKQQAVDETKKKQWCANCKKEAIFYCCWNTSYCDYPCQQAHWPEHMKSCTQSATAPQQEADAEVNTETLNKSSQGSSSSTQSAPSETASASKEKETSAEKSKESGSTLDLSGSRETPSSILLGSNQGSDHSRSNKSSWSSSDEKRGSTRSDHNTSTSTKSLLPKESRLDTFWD

[2] = molecular target: SUZ12 (human (endogenous in CP70)) (UniProt Q15022); assay: co-IP; nuclear fractions of CP70 CD55 OE cells; IP with ZMYND8, SUZ12 or EZH2 antibody, immunoblot
[3] = molecular target: Enhancer of zeste homolog 2 (EZH2) (human (endogenous in CP70)) (UniProt Q15910); assay: as above
[4] = molecular target: T1, Zinc finger MYND domain-containing protein 8 (ZMYND8) (human (endogenous in CP70)); assay: as above

binding [1] | binding [2] | binding [3] | binding [4] | Substance
binds |  |  |  | CD55 (complement decay-accelerating factor), endogenous in CP70 cells (from UniProt P08174 35-353)
binds | binds | binds | binds | Wild type full length CD55 overexpressed in CP70 cells (CD55 OE) (from UniProt P08174 35-353)
